The other results are listed elsewhere or left out.

The target in this experiment is T1, OsSMF1 (Oryza sativa, UniProt Q6ZLB0 1-436).
T1 sequence: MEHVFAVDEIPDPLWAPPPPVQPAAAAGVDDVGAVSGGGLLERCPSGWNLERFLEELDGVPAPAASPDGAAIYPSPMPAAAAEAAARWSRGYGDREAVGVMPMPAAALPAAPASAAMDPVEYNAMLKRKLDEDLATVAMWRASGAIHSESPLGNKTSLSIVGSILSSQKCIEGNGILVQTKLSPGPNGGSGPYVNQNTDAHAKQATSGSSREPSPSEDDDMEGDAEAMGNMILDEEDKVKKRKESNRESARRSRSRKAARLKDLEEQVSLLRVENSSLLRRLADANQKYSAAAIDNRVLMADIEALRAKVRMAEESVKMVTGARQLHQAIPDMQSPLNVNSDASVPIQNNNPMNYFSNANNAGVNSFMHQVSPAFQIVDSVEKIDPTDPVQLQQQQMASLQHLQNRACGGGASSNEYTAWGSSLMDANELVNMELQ
The experiment is described as follows: protein-binding microarray (RPBM); PBS, 2% BSA, 51.3 ng/ul salmon testes DNA, 50 uM zinc acetate, 200 nM TF, 25 C, 1 h; high values mean tight binding. The following applies: protein: recombinant; tags: N-terminal polyhistidine and DsRed monomer fusion (pET32a); chain copies: 2; label: CyDye5-dUTP incorporated in the synthesized complementary strand; 3' TTTTT single-stranded linker to array surface; dsDNA, one strand shown. Summed up: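 In PBS with 2% BSA, salmon testes DNA and 50 µM zinc acetate, 200 nM protein was incubated on a custom Agilent array at 25 °C for 1 h and then washed off. The array had been made double-stranded by primer extension with Cy5-dUTP and blocked with 2% BSA. The proteins were transcription factors fused N-terminally to polyhistidine and DsRed, expressed in E. coli BL21-CodonPlus and purified on Ni–NTA. The binding signal is per-feature fluorescence intensity (arbitrary units) from an Axon 4000B scanner.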
As to “AAAATGGCCAAAGAGGGCAGTAATGCGACGTCACATTAGCCGGAGTCACCTAGTGCAG”, the binding signal was 4490 fluorescence intensity (a.u.).
Then “GAGGTGTCACTCGCGCGGTGCACCGCTGCACCATCACCGCCGGAGTCACCTAGTGCAG”, with 5580 fluorescence intensity (a.u.); and “CCGCCAGGGCTCCATCGCTGGTGGTGTCACCTCGCCTAAACGGAGTCACCTAGTGCAG”, with 3520 fluorescence intensity (a.u.); and “CGTCGTCTTCATCGACCTGACTCACCATTGACGAGTGCAGCGGAGTCACCTAGTGCAG”, with 9270 fluorescence intensity (a.u.).
Consider “CGCATGTACACGTACTCCTTTCCCCTCCACACCCTCCGAACGGAGTCACCTAGTGCAG”, for which the binding signal is 5620 fluorescence intensity (a.u.).
Then “ATTCCATATTTCCATTCCACACGTCTTGAGAGCTAATCTTCGGAGTCACCTAGTGCAG”, with 3400 fluorescence intensity (a.u.); and “TGTTTCCGTAATATGTGGCAGATTTATTGCAACAGTGCGTCGGAGTCACCTAGTGCAG”, with 3400 fluorescence intensity (a.u.).
Then “TCTCACCGCCCCACGCATTTCCTCCTCCTTGCCTCGCCTTCGGAGTCACCTAGTGCAG”, with 3190 fluorescence intensity (a.u.).
For “ATCATTGAGGTCAAACTTTATCCACCTCATCATTATTCAGCGGAGTCACCTAGTGCAG”, the binding signal is 4390 fluorescence intensity (a.u.).
Then “ATGGCGCTGTCCACATGCGCCACCGTGGCACGCGCCGCGCCGGAGTCACCTAGTGCAG”, with 8760 fluorescence intensity (a.u.); and “AACCACCAGAAACGCACACGTCGCGCACGCCTGAGCAGACCGGAGTCACCTAGTGCAG”, with 3250 fluorescence intensity (a.u.); and “CACCGCCACGTGGGCCCCACCTGTCATCCACACGGACCTGCGGAGTCACCTAGTGCAG”, with 18000 fluorescence intensity (a.u.).
Consider “CCAGCTCCCCATCCCAGATGAGGTGGCAACAACACTGCTTCGGAGTCACCTAGTGCAG”, for which the binding signal is 8280 fluorescence intensity (a.u.).
In the case of “CGACATGTTGAGATGCGGGTTGCGTCTGCATGGTGCGTCGCGGAGTCACCTAGTGCAG”, the binding signal is 3830 fluorescence intensity (a.u.).
For “AATTATAAAATCCAGAAAATAAACTAAGAACTGAAAACTACGGAGTCACCTAGTGCAG” the value was 5060 fluorescence intensity (a.u.).
Consider “GTCGGGGCGCGTGCGCAGCAGCGCGAAGCGGAGCGGGAGACGGAGTCACCTAGTGCAG”, for which the binding signal is 4120 fluorescence intensity (a.u.).
Then “TCCTCCTCTCACCACTTGGAAGCATCCACCTCATTACATCCGGAGTCACCTAGTGCAG”, with 5790 fluorescence intensity (a.u.); and “TCCGTCCATGATAGTAGATGGTAGTGACAGTGGACATGTCCGGAGTCACCTAGTGCAG”, with 3320 fluorescence intensity (a.u.).
For “ATATAATAGCTAATCAAACACTAGTCCGAAGACGTAGTATCGGAGTCACCTAGTGCAG”, the binding signal is 18800 fluorescence intensity (a.u.).
Regarding “ATACATAGCCATATATAAAATTAATGTGATAACATATTCTCGGAGTCACCTAGTGCAG”, the binding signal is 3660 fluorescence intensity (a.u.).
“CCTCTGCAATCGGTCCAACTGCTGACTACTCCCTACATCTCGGAGTCACCTAGTGCAG”: the binding signal was 4090 fluorescence intensity (a.u.).
Then “CACAGTAACCCCACTGCCACACATCACAGATTTACATATCCGGAGTCACCTAGTGCAG”, with 3170 fluorescence intensity (a.u.); and “CTCTCTAGCTATAGCTATAGCTTACCTCATCACCGTCGTCCGGAGTCACCTAGTGCAG”, with 3540 fluorescence intensity (a.u.); and “CAACGATGTAGCTCGCTGACCTTTAAATAGGCGGTTGAGGCGGAGTCACCTAGTGCAG”, with 5780 fluorescence intensity (a.u.).
Then “TACGTTTCTCAGTGTATCAATCTGTGGATCATGCTCGCAGCGGAGTCACCTAGTGCAG”, with 3860 fluorescence intensity (a.u.); and “TCTCTTCTCGGGCATCAGGCGTCAGCCCTTAAGGCGCCACCGGAGTCACCTAGTGCAG”, with 3150 fluorescence intensity (a.u.); and “ATTGGACGATAAAATATTGGACGGTGATTCACCTTTTAGACGGAGTCACCTAGTGCAG”, with 3170 fluorescence intensity (a.u.).
For the sequence “ATAATGCAACGATTTCGTAGTCACGTACAGACACCGTCTCCGGAGTCACCTAGTGCAG”, the binding signal is 4250 fluorescence intensity (a.u.).
Then “AAAATCTGACAAGAAACAAATCGATAGACATCATGGGTTCCGGAGTCACCTAGTGCAG”, with 16500 fluorescence intensity (a.u.).
Take “GTCATGTGAAGTAGCGCCTTGAGTCATCATCGTCAACGCTCGGAGTCACCTAGTGCAG”: the binding signal was 7390 fluorescence intensity (a.u.).
Then “TCATTTCCAATGCATTCTTAATTTAGAGGAAGGATAATAGCGGAGTCACCTAGTGCAG”, with 3570 fluorescence intensity (a.u.); and “TGTTGAATGAACGGTAGGCTGACGGCGATGGCATTTCTGGCGGAGTCACCTAGTGCAG”, with 7580 fluorescence intensity (a.u.); and “TGGATATTTTCTCCGTCGATTGGTACAGTACACAGGTGTGCGGAGTCACCTAGTGCAG”, with 3190 fluorescence intensity (a.u.).
Regarding “GAGATCGATCGGGCGGAGGCGCCGCGCCACGCCGCGGCCACGGAGTCACCTAGTGCAG”, the binding signal was 3330 fluorescence intensity (a.u.).
For the sequence “CCTTCTCTCTCACCTGCGCACACGTACTGTACATATATACCGGAGTCACCTAGTGCAG”, the binding signal was 4500 fluorescence intensity (a.u.).
For “AATGCTGAAGTTGTTGACATTCGCTACCACGCCCGAGTCTCGGAGTCACCTAGTGCAG” the value was 3190 fluorescence intensity (a.u.).
With “CTAATACGATATAAACATTATTATCTATCCGTATTGGCTCCGGAGTCACCTAGTGCAG”, the binding signal is 33900 fluorescence intensity (a.u.).
Then “AGAAATTGAATTGCTTGCTACAGAGAAGCTAGAAGAGTTTCGGAGTCACCTAGTGCAG”, with 64800 fluorescence intensity (a.u.).
For “TGTCGAGTGAAAGTTGACGTACTCAAGATCATCCATATGCCGGAGTCACCTAGTGCAG” the value was 3170 fluorescence intensity (a.u.); for “TTTTGTCCATTTTCTGGATTCTACGACTACAATTTCTTAGCGGAGTCACCTAGTGCAG”, 3160 fluorescence intensity (a.u.).
Then “CACGGCACCGGATCCGGTCGGCGCCGACGCCATGCCCTGACGGAGTCACCTAGTGCAG”, with 34800 fluorescence intensity (a.u.).
Regarding “ACAGCTATGGGAATTGTCCAAAACACCCTCAACCGTCATTCGGAGTCACCTAGTGCAG”, the binding signal is 31500 fluorescence intensity (a.u.).

The values are drawn from article PMC7819943, “Rice protein-binding microarrays: a tool to detect cis-acting elements near promoter regions in rice”.
